Reference: patent publication US20250154213A1, “De Novo Designed Cortisol Biosensor” (University of Washington, priority 2023, published 2025)
Results are given in words; binding and its absence hold for the method and conditions named. Some results given as binding are weak or reduced against the parent protein; the word gives no strength.

Molecular target: T1, seq129.1_CID
T1 sequence (chain, biotinylated (in the yeast display FACS; site not stated)): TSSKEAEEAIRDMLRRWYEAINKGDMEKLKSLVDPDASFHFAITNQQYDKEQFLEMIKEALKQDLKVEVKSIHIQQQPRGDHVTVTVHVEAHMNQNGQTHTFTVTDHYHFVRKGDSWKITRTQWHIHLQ
Experiment: size-exclusion chromatography, 1 µM each protein, with/without 10 µM cortisol

- binding: binds
B1: mini11 (designed binder)
chain: MSSASTLVKTFSLCMEALSIEDPEKREEVYEKARKLAEENNDPAALFLVESIKKQHEQSSSLEHHHHHH
